Results deposited as PubChem BioAssay AID720505 (Drosophila RNAi Screening Center, 2013)

- Screen: 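Knock-downs that reduce calcium influx once internal stores are emptied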 (primary screen)
- Cells: Drosophila S2R+ cells
- Reagents: long dsRNA against Drosophila genes
- Treatment: thapsigargin (2 µM) in calcium-free buffer to empty internal stores, then 2 mM calcium added back
- Detection: 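Stores emptied by 2 µM thapsigargin without calcium, then 2 mM calcium re-added; fluo-4 fluorescence followed by FLIPR in 384-well plates, per-well averaged endpoint, raw; two screen passes, some wells retested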
- Reading the numbers: calcium signal and retest calcium signal: higher = more calcium entry after store depletion
- Rule for the call: 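Knock-downs counted as hits when calcium entry dropped relative to STIM1 positive and Rho1 negative controls present on each plate; roughly 1500 genes called, with reductions of differing size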
- Meaning of the calls: active = called as lowering calcium entry; inactive = not called
In all, the deposit lists about 20,000 reagents; shown is a random part of those that have a named target and a result. Of all reagents, about 2,100 (10%) were called active. 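Raw plate signals without normalisation; calls rest on control-based scores that were not deposited; replicate 2 separates called from uncalled poorly.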 The numbers tell different reagents against one gene apart. Names joined by + are all predicted targets of the reagent. The record does not give: the amount of reagent, the time to read-out.

| target gene | dsRNA no. | calcium signal, replicate 1 | calcium signal, replicate 2 | retest calcium signal, replicate 1 | retest calcium signal, replicate 2 | activity call |
| --- | --- | --- | --- | --- | --- | --- |
| CG33125 | 1 | 129 | 172 | – | – | inactive |
| Arc1 | 1 | 172 | 135 | 104 | 108 | inactive |
| CG4835 | 1 | 107 | 66 | – | – | inactive |
| CG2794 | 1 | 108 | 139 | – | – | inactive |
| tilB | 1 | 109 | 109 | – | – | inactive |
| Spp | 1 | 99.7 | 222 | – | – | inactive |
| CG10445 | 1 | 102 | 152 | – | – | inactive |
| SecCl | 1 | 101 | 188 | – | – | inactive |
| CG30484 | 1 | 123 | 132 | – | – | inactive |
| luna | 1 | 111 | 177 | – | – | inactive |
| luna | 2 | 111 | 180 | – | – | inactive |
| luna | 3 | 102 | 180 | 6582 | 148 | inactive |
| RpLP2 | 1 | 114 | 131 | – | – | inactive |
| CG34236 | 1 | 100 | 161 | – | – | inactive |
| ACXE | 1 | 119 | 177 | – | – | inactive |
| CG13639 | 1 | 139 | 104 | – | – | inactive |
| EMRE | 1 | 171 | 148 | – | – | inactive |
| CG13725 | 1 | 93.2 | 128 | – | – | inactive |
| CG15286 | 1 | 110 | 86.3 | – | – | inactive |
| ksr | 1 | 102 | 137 | – | – | inactive |
| bsh | 1 | 160 | 145 | – | – | inactive |
| CG46385 | 1 | 178 | 97.3 | – | – | inactive |
| CG46385 | 2 | 99.3 | 155 | – | – | inactive |
| TwdlN | 1 | 76.7 | 77.6 | – | – | inactive |
| eIF3a | 1 | 77.7 | 139 | – | – | inactive |
| laza | 1 | 115 | 152 | – | – | inactive |
| laza | 2 | 95 | 134 | – | – | inactive |
| CG15365 | 1 | 226 | 79.9 | – | – | inactive |
| CG15365 | 2 | 95.7 | 142 | – | – | inactive |
| CG31806 | 1 | 114 | 99.5 | – | – | inactive |
| CG1492 | 1 | 113 | 113 | – | – | inactive |
| ssp3 | 1 | 82.8 | 87.7 | – | – | inactive |
| ssp3 | 2 | 104 | 97.7 | – | – | inactive |
| CG18081 | 1 | 80.1 | 158 | – | – | inactive |
| CG4880 | 1 | 145 | 89.7 | – | – | inactive |

The list goes on, starting with the last 7 of the part before.
| target gene | dsRNA no. | calcium signal, replicate 1 | calcium signal, replicate 2 | retest calcium signal, replicate 1 | retest calcium signal, replicate 2 | activity call |
| --- | --- | --- | --- | --- | --- | --- |
| CG15365 | 2 | 95.7 | 142 | – | – | inactive |
| CG31806 | 1 | 114 | 99.5 | – | – | inactive |
| CG1492 | 1 | 113 | 113 | – | – | inactive |
| ssp3 | 1 | 82.8 | 87.7 | – | – | inactive |
| ssp3 | 2 | 104 | 97.7 | – | – | inactive |
| CG18081 | 1 | 80.1 | 158 | – | – | inactive |
| CG4880 | 1 | 145 | 89.7 | – | – | inactive |
| CG3117 | 1 | 221 | 141 | – | – | inactive |
| zetaTry | 1 | 134 | 160 | – | – | inactive |
| Iris | 1 | 126 | 203 | – | – | inactive |
| CG32213 + CG12519 + 825-Oak + 1 more | 1 | 3252 | 120 | – | – | active |
| pyr | 1 | 77.4 | 158 | 10064 | 149 | inactive |
| pyr | 2 | 88.9 | 70.8 | – | – | inactive |
| CG33262 | 1 | 95.1 | 181 | – | – | inactive |
| Uba4 | 1 | 187 | 143 | – | – | inactive |
| Ufc1 | 1 | 164 | 127 | – | – | inactive |
| nocte | 1 | 126 | 98.3 | – | – | inactive |
| CG13438 | 1 | 71.5 | 125 | – | – | inactive |
| CG5191 | 1 | 163 | 267 | – | – | inactive |
| CG5191 | 2 | 193 | 185 | – | – | inactive |
| CG5191 | 3 | 162 | 98.5 | – | – | inactive |
| CG15625 | 1 | 153 | 73.4 | – | – | inactive |
| inaD | 1 | 152 | 185 | – | – | inactive |
| tth | 1 | 191 | 138 | – | – | inactive |
| 5-HT1A | 1 | 101 | 124 | – | – | inactive |
| CG18011 | 1 | 151 | 161 | – | – | inactive |
| CG18011 | 2 | 85.2 | 141 | – | – | inactive |
| CG31988 | 1 | 84.2 | 182 | – | – | inactive |
| Obp8a | 1 | 89.3 | 86.3 | – | – | inactive |
| CG13708 | 1 | 92.4 | 66.2 | – | – | inactive |
| Rab35 | 1 | 110 | 82.2 | – | – | active |
| E(spl)mgamma-HLH | 1 | 181 | 144 | – | – | inactive |
| CG12713 | 1 | 136 | 86.5 | – | – | inactive |
| CR31032 | 1 | 130 | 146 | – | – | inactive |
| TkR99D | 1 | 114 | 168 | – | – | inactive |
| Mgat2 | 1 | 109 | 147 | – | – | inactive |
| CG15343 | 1 | 172 | 138 | – | – | inactive |
| RyR | 1 | 73.8 | 83.2 | – | – | inactive |
| Atg3 | 1 | 110 | 85.5 | 163 | 146 | inactive |
| Atg3 | 2 | 157 | 112 | – | – | inactive |
| mod | 1 | 122 | 104 | – | – | inactive |
| Cerk | 1 | 92.2 | 104 | – | – | inactive |
| c-cup | 1 | 164 | 143 | – | – | inactive |
| CG12831 | 1 | 132 | 121 | – | – | inactive |
| nSMase | 1 | 65.8 | 97.4 | – | – | active |
| mRpL21 | 1 | 74.4 | 164 | – | – | inactive |
| CG11327 | 1 | 104 | 132 | – | – | inactive |
| Srp54k | 1 | 66.7 | 92.4 | – | – | inactive |
| NTPase | 1 | 127 | 140 | – | – | inactive |
| Agpat4 | 1 | 102 | 92.6 | – | – | active |
| LTV1 | 1 | 139 | 111 | – | – | inactive |
| PIG-N | 1 | 111 | 75.5 | – | – | inactive |
| CG11617 | 1 | 186 | 125 | – | – | inactive |
| CG11617 | 2 | 76.7 | 169 | – | – | active |
| Septin4 | 1 | 107 | 86.5 | – | – | inactive |
